The source of these data is PMC10540216, “Activity Guided Azide-methyllysine Photo-trapping for Substrate Profiling of Lysine Demethylases” (Journal of the American Chemical Society, 2023).

By UniProt entry, the sequences of proteins in these tests, tags left out.
UniProt P83916: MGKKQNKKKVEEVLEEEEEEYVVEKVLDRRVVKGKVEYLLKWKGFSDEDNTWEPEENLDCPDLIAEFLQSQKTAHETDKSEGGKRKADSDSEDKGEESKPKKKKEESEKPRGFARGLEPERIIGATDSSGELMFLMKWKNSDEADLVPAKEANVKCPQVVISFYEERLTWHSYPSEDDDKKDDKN
UniProt P38919: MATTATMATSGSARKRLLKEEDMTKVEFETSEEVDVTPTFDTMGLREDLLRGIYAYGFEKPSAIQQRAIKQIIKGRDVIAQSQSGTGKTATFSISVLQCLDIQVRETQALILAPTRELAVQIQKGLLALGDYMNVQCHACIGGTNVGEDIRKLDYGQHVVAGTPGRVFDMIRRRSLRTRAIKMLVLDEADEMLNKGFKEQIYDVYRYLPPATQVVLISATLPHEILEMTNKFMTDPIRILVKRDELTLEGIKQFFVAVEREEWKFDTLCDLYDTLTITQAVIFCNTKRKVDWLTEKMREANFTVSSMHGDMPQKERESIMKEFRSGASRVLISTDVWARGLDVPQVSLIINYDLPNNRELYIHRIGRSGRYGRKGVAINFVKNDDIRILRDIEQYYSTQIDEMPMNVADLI

In assay [1] the target is recombinantly expressed CBX1 (6xHis in N-terminus) (UniProt P83916). The experiment in a line: pull-down; nuclear extracts from HEK293T cells expressing control vector, G9a or KDM4A supplemented with recombinant 6xHis-CBX1; Ni-NTA-coated magnetic beads; immunoblot; only the target purified. (A western blot detects proteins with antibodies after separation by electrophoresis.)

Assay [2] deals with endogenous CBX1 (human (endogenous in HEK293T)) (UniProt P83916). As to the kind of experiment: co-IP; immunoprecipitation with the CBX1 antibody from HEK293T cells transfected with control vector, G9a or KDM4A; immunoblot for eIF4A3.
For assay [3] the target is unchanged. As to the kind of experiment: co-IP; CBX1 antibody cross-linked (BS3) to Protein A Dynabeads, 4 mg nuclear extracts of HEK293T cells expressing control vector, G9a or KDM4A, overnight at 4 °C; Western blot for eIF4A3, Kme3 and CBX1.

These are yes or no findings as the source states them, for the method shown. Binding seen in cells or lysates may run through a third protein. Some entries that bind do so weakly or less than the wild type.

Consider “eukaryotic translational initiation factor 4A3 (from UniProt P38919 1-411)”, for which the binding entry in assay [1] and in assay [2] was “binds” throughout.

As for “endogenous eIF4A3 (from UniProt P38919 1-411)”, in assay [3], the binding result is recorded as “binds”.
